Data: publication PMC13529552
Results are given in words; binding and its absence hold for the method and conditions named. In cells and extracts the contact can be indirect. Some entries that bind do so weakly or less than the wild type. Where a sequence is shown, tags or fusion partners need not be part of it.

Amino acid sequences for entries named in this document (tags omitted).
UniProt P62136: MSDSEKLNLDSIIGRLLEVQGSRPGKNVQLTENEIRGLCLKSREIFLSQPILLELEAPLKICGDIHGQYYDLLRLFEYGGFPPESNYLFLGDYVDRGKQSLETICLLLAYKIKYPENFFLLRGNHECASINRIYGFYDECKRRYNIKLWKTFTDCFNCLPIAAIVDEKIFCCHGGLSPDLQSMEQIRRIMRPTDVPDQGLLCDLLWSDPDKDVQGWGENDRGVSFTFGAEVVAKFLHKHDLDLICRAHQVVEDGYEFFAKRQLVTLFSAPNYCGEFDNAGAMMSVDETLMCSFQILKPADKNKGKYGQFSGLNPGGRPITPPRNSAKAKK
UniProt P67775: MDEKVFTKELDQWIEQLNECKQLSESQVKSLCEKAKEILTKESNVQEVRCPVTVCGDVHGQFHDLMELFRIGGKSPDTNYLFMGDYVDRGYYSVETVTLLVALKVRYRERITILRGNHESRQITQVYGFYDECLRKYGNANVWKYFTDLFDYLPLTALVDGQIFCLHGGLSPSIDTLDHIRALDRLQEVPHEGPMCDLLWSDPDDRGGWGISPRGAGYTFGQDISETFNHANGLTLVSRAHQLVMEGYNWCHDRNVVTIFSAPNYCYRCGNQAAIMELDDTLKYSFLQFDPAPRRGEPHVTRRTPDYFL

Molecular target: T1, Flag-GSDMD (gasdermin D) (mouse (from the plasmid name mGSDMD)) (UniProt Q9D8T2)
T1 sequence: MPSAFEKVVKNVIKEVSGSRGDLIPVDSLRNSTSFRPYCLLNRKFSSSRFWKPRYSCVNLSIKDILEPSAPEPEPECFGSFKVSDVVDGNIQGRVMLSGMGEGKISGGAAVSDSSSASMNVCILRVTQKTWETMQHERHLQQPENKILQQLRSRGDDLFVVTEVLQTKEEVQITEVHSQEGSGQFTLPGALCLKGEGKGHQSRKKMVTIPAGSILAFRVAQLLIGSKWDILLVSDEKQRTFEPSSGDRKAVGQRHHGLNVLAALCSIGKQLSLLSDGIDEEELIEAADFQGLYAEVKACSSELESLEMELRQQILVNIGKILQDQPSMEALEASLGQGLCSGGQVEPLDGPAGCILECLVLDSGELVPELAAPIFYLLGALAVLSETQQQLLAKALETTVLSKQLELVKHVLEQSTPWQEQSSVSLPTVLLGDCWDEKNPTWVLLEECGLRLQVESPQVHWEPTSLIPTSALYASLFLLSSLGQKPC
Test: co-IP; anti-Flag immunoprecipitation from HEK293 cells co-transfected with Flag-GSDMD and/or HA-PP1α or HA-PP2α, followed by immunoblot; EBC lysis buffer (50 mM Tris pH 7.5, 120 mM NaCl, 0.5% NP-40)

| Substance | binding |
| --- | --- |
| HA-PP1α (from UniProt P62136 1-330) (enzyme) | binds |
| HA-PP2α (from UniProt P67775 1-309) (enzyme) | binds |
